{"source": "PubChem BioAssay AID540256", "about": "(National Center for Advancing Translational Sciences (NCATS), 2011)", "note": "The whole screen tested about 300,000 compounds, of which about 3,700 (1.2%) were called active. The shares of active, inactive and inconclusive entries below differ from those in the screen. The call rests on the fitted dose curve; tested in HEK293 cells. A potency beside an inconclusive call is a rough fit, not a confirmed value. On the % scale 0 is the no-effect control and ±100 the full control effect; potency means the concentration at half of the fitted maximal effect."}
{"assay": "qHTS for Inhibitors of binding or entry into cells for Lassa Virus; further: nearly all actives have a fitted effect of over 50% in size", "settings": "Lassa virus pseudotype entry inhibition, cell reporter; activity change, negative = inhibition: at 37.9 µM (top of the series) unless noted"}
{"smiles": "O=C(N/N=C/c1ccc(F)cc1)c1c(O)c2ccccc2[nH]c1=O", "activity change, negative = inhibition": "inactive: -1.64%"}
{"smiles": "O=C(NCc1ccncc1)C(=O)NC1CC1", "activity change, negative = inhibition": "inactive: 8.92%"}
{"smiles": "C/C(=N\\NC(=O)c1ccc(F)cc1)c1ccc(NC(=O)Cc2ccccc2)cc1", "Potency": "inconclusive: 5.62 µM [activator, single point]"}
{"smiles": "Cc1nc(-c2ccc(O)c(O)c2)cs1", "activity change, negative = inhibition": "inactive: -5.85%"}
{"smiles": "Cc1ccc2[nH]c(=O)c(CN(Cc3cccs3)Cc3nnnn3Cc3ccccc3)cc2c1", "Potency": "inconclusive: 32.6 µM [inhibitor, single point]"}
{"smiles": "S=C(N/N=C/c1ccccc1Cl)Nc1ccccc1", "Potency": "inconclusive: 7.3 µM [inhibitor, partial curve]"}
{"smiles": "CCOc1ccc(C(=O)Nc2cc(S(=O)(=O)Nc3ccccc3Cl)ccc2N2CCOCC2)cc1", "Potency": "inconclusive: 2.91 µM [inhibitor, full curve]"}
{"smiles": "COc1ccc2[nH]c(=O)c(CN(CC3CCCO3)C(=O)Nc3ccccc3OC)cc2c1", "note": "(stereo unspecified)", "Potency": "inconclusive: 11.2 µM [inhibitor, partial curve, poor fit]"}
{"smiles": "Cc1cc(=O)[nH]c(SCC(=O)Nc2ccccc2C)n1", "activity change, negative = inhibition": "inactive: -10.7% [at 46.1 µM]"}
{"smiles": "O=C(CC1SC(=Nc2ccc(OC(F)F)cc2)N(CCN2CCOCC2)C1=O)Nc1ccc(F)cc1F", "note": "(stereo unspecified)", "Potency": "inconclusive: 35.5 µM [inhibitor, partial curve, poor fit]"}
{"smiles": "COc1ccc(NC(=O)c2noc3c2CCC3)cc1", "Potency": "inconclusive: 13 µM [inhibitor, partial curve]"}
{"smiles": "COCCn1c(SCC(=O)Nc2ccccc2C(F)(F)F)nc2ccccc2c1=O", "activity change, negative = inhibition": "inactive: -0.238% [at 46.1 µM]"}
{"smiles": "Cc1cnn(Cc2ccccc2)c1N", "Potency": "inconclusive: 20.6 µM [activator, single point]"}
{"smiles": "COc1cccc(OC)c1OCCCCCc1c(C)n[nH]c1C", "Potency": "inconclusive: 35.5 µM [inhibitor, partial curve, poor fit]"}
{"smiles": "CCCn1c(=O)c2c(nc3n2CCCN3CCc2ccccc2)n(C)c1=O", "activity change, negative = inhibition": "inactive: -23.5%"}
{"smiles": "Cc1nn(S(=O)(=O)c2ccc(Cl)cc2)c(C)c1S(=O)(=O)N1CCCCCC1", "activity change, negative = inhibition": "inactive: 5.39% [at 46.1 µM]"}
{"smiles": "Cc1ccc(NC(=O)CN(C)C(=O)COC(=O)C2=COCCO2)cc1", "Potency": "inconclusive: 35.5 µM [activator, single point]"}
{"smiles": "CCOC(=O)c1c(NC(=O)c2cc(=O)c3c(C)cc(C)cc3o2)sc(C(C)=O)c1C", "Potency": "inconclusive: 14.1 µM [activator, partial curve, poor fit]"}
{"smiles": "CCOc1ccc(CN(Cc2ccco2)C(c2cccs2)c2nnnn2C(C)(C)C)cc1", "note": "(stereo unspecified)", "Potency": "inconclusive: 12.6 µM [inhibitor, partial curve, poor fit]"}
{"smiles": "COCc1nnc(NC(=O)c2ccc(S(=O)(=O)N3CCCC3)cc2)o1", "activity change, negative = inhibition": "inactive: 14.7%"}
{"smiles": "CCOc1ccc(C(C)=O)cc1COC(=O)C1=COCCO1", "activity change, negative = inhibition": "inactive: -0.945%"}
{"smiles": "CC1CCCN(c2ccc(N)cc2C(N)=O)C1", "note": "(stereo unspecified)", "Potency": "inconclusive: 6.31 µM [inhibitor, partial curve, poor fit]"}
{"smiles": "COc1ccc(NC(=O)CSc2nc(C3CC3)nc3ccccc23)cc1", "Potency": "inconclusive: 35.5 µM [inhibitor, single point]"}
{"smiles": "Clc1ncnc2scc(C3COc4ccccc4O3)c12", "note": "(stereo unspecified)", "activity change, negative = inhibition": "inactive: -2.13%"}
{"smiles": "C=CCSC1=C(C#N)C(c2ccccc2OC)CC(=O)N1", "note": "(stereo unspecified)", "Potency": "inconclusive: 0.0891 µM [inhibitor, full curve, poor fit]"}
{"smiles": "Cc1onc(-c2ccccc2)c1CNS(=O)(=O)c1cccc(Cl)c1", "activity change, negative = inhibition": "inactive: 1.14%"}
{"smiles": "CCOC(=O)c1ccc(NC(=O)[C@@H](NC(N)=O)C(C)C)cc1", "activity change, negative = inhibition": "inactive: -17.3% [at 46.1 µM]"}
{"smiles": "CC(NC(=O)c1ccccc1Cl)C(=O)N1CCN(Cc2ccc3c(c2)OCO3)CC1", "note": "(stereo unspecified)", "activity change, negative = inhibition": "inactive: 7.52%"}
{"smiles": "CCn1c(SCc2ccccc2Cl)nc(=O)c2c(C(=O)OC)cc(C3CC3)nc21", "activity change, negative = inhibition": "inactive: -28.8% [at 46.1 µM]"}
{"smiles": "COc1ccc(NC(=O)CN2CCC(C(=O)c3ccc(C)cc3)CC2)c(OC)c1", "Potency": "inconclusive: 2.82 µM [inhibitor, partial curve, poor fit]"}
{"smiles": "O=C(CCC(=O)N1CCN(c2ccccc2F)CC1)N1CCN(c2ccc(F)cc2)CC1", "Potency": "inconclusive: 3.98 µM [inhibitor, full curve]"}
{"smiles": "CCOc1ccc2c(c1)c1nnc(SCC(=O)NC3CC3)nc1n2C", "Potency": "inconclusive: 1.41 µM [inhibitor, full curve, poor fit]"}
{"smiles": "CCc1ccc(N(C(=O)c2ccco2)C(C(=O)NC2CCCC2)c2ccco2)cc1", "note": "(stereo unspecified)", "Potency": "inconclusive: 6.31 µM [inhibitor, single point]"}
{"smiles": "Cc1cc(/C=C(\\C#N)C(=O)NCc2ccco2)c(C)n1-c1ccc(C(=O)O)cc1", "Potency": "inconclusive: 28.2 µM [activator, partial curve, poor fit]"}
{"smiles": "Cc1ccc(NC(=O)CCC(=O)N/N=C/c2ccc(O)cc2)cc1", "Potency": "inconclusive: 1.12 µM [inhibitor, partial curve, poor fit]"}
{"smiles": "N#C/C(=C/c1ccc(N2CCOCC2)o1)c1nc2ccccc2[nH]1", "Potency": "inconclusive: 12.6 µM [inhibitor, partial curve, poor fit]"}
{"smiles": "COC(=O)c1c(NC(=O)CN2C(=O)NC3(CCc4ccccc4C3)C2=O)sc2c1CCCCC2", "note": "(stereo unspecified)", "Potency": "inconclusive: 29.1 µM [inhibitor, single point]"}
{"smiles": "COc1ccc(S(=O)(=O)NCc2ccco2)cc1NC(=O)c1ccccc1", "activity change, negative = inhibition": "inactive: -11.5%"}
{"smiles": "CC1=NN(c2ccccc2)C(=O)/C1=C\\c1cc(C)n(-c2cccnc2)c1C", "Potency": "inconclusive: 10 µM [activator, partial curve]"}
{"smiles": "C/C(=N\\O)c1ccc2c3ccccc3n(C)c2c1", "Potency": "inconclusive: 20.6 µM [activator, partial curve, poor fit]"}
{"smiles": "CNC(=O)COc1ccc(NC(=O)c2ccc(-c3nn(C)c(=O)c4ccccc34)cc2)cc1", "Potency": "inconclusive: 0.501 µM [activator, partial curve, poor fit]"}
{"smiles": "N#CCSc1nc2c(cc1C#N)CCCCCC2", "Potency": "inconclusive: 0.282 µM [inhibitor, full curve, poor fit]"}
{"smiles": "Cc1ccc(-c2csc(/C(C#N)=C/c3ccccc3Cl)n2)cc1", "activity change, negative = inhibition": "inactive: 23.9% [at 46.1 µM]"}
{"smiles": "CC(C)CN(C)C(=O)CC1C(=O)NCCN1C", "note": "(stereo unspecified)", "activity change, negative = inhibition": "inactive: 15%"}
{"smiles": "O=C(COc1cccc(Cl)c1)NCc1ccccc1", "Potency": "inconclusive: 11.2 µM [inhibitor, single point]"}
{"smiles": "Clc1cccc(Nc2ncnc3ccc(Br)cc23)c1", "activity change, negative = inhibition": "inactive: -24.3%"}
{"smiles": "O=C(CSc1nnc(CNC(=O)c2ccccc2)n1-c1cccc(Cl)c1)Nc1ccccc1F", "Potency": "inconclusive: 28.2 µM [inhibitor, single point]"}
{"smiles": "COc1ccc(OC)c(N)c1", "activity change, negative = inhibition": "inactive: -1.11%"}
{"smiles": "CCNC(=O)N1CCC(c2nc3ccccc3s2)CC1", "activity change, negative = inhibition": "inactive: 4.24% [at 46.1 µM]"}
{"smiles": "Cc1cc(C(=O)c2ccc(C(C)(C)C)cc2)c(NC(=O)CCl)s1", "Potency": "inconclusive: 35.5 µM [inhibitor, single point]"}
{"smiles": "Cc1cc(C)c(S(=O)(=O)c2ccccc2)c(OC(=O)c2c(Cl)cc(Cl)cc2Cl)n1", "Potency": "inconclusive: 15.8 µM [inhibitor, partial curve, poor fit]"}
{"smiles": "CCOc1ccc(/C(O)=C2\\C(=O)C(=O)N(c3ccc(OC)cc3)C2c2ccccc2[N+](=O)[O-])cc1", "note": "(stereo unspecified)", "Potency": "inconclusive: 10 µM [inhibitor, partial curve, poor fit]"}
{"smiles": "COc1cccc(CN2CCN(C(c3ccccc3)c3ccccc3)CC2)c1O", "Potency": "inconclusive: 35.5 µM [inhibitor, single point]"}
{"smiles": "COc1ccccc1N1CCN(C(=O)CSc2nnnn2C2CC2)CC1", "activity change, negative = inhibition": "inactive: 1.98%"}
{"smiles": "CCc1ccccc1Nc1ncnc2c1nc1n2CCCC1", "activity change, negative = inhibition": "inactive: 4.24% [at 46.1 µM]"}
{"smiles": "CCOc1ccc(-c2nnc3n2N=C(c2ccc(OC)cc2)CS3)cc1", "Potency": "inconclusive: 0.411 µM [inhibitor, full curve, poor fit]"}
{"smiles": "COc1ccc(-c2cnnc(N/N=C/c3ccc(O)cc3)n2)cc1", "Potency": "active: 2 µM"}
{"smiles": "Cc1noc(-c2ccc(Cl)cc2)c1C(=O)O/N=C(\\N)c1ccc(C(C)(C)C)cc1", "Potency": "inconclusive: 35.5 µM [inhibitor, single point]"}
{"smiles": "O=C(NCC1OCCc2ccccc21)c1ccc(NC(=O)c2ccc(Cl)cc2)cc1", "note": "(stereo unspecified)", "Potency": "inconclusive: 35.5 µM [inhibitor, single point]"}
{"smiles": "Oc1ccccc1C1=Nc2ccccc2N=C(c2ccco2)C1", "Potency": "inconclusive: 32.6 µM [inhibitor, single point]"}
{"smiles": "Cc1ccc(O)c(-n2nc3ccccc3n2)c1", "Potency": "inconclusive: 0.562 µM [activator, full curve, poor fit]"}
{"smiles": "Cc1ccc2cccc(NC(=O)c3ccc(-c4ccc(Br)cc4)o3)c2n1", "activity change, negative = inhibition": "inactive: -3.12% [at 46.1 µM]"}
{"smiles": "N#CC(C#N)=Cc1ccc(-c2ccccc2F)o1", "activity change, negative = inhibition": "inactive: 1.05%"}
{"smiles": "Cc1ccc(S(=O)(=O)Nc2cccc(C(=O)NC3CCN(Cc4ccccc4)CC3)c2)cc1F", "Potency": "inconclusive: 7.94 µM [inhibitor, partial curve]"}
{"smiles": "CN1CCN(Cc2nnc3n2-c2ccc(Cl)cc2C(c2ccccc2)=NC3)CC1", "Potency": "inconclusive: 5.17 µM [activator, single point]"}
{"smiles": "Cc1ccc(C)c(-c2nc(Cn3c(=O)cc(-c4ccccc4)c4c(C)nn(C)c43)c(C)o2)c1", "activity change, negative = inhibition": "inactive: 12.2% [at 46.1 µM]"}
{"smiles": "CC(C)(C)C(=O)CSc1nc2ccsc2c(=O)n1Cc1ccccc1F", "Potency": "inconclusive: 1.12 µM [inhibitor, full curve, poor fit]"}
{"smiles": "O=C(NCCN1CCOCC1)c1c(Cl)cccc1Cl", "activity change, negative = inhibition": "inactive: 20.4% [at 46.1 µM]"}
{"smiles": "Cc1ccc(OCc2cc(C(=O)N3CCCC3)no2)cn1", "Potency": "inconclusive: 11.2 µM [inhibitor, partial curve, poor fit]"}
{"smiles": "CC1CCN(c2cc(N3CCOCC3)c([N+](=O)[O-])cc2F)CC1", "Potency": "inconclusive: 20.6 µM [inhibitor, single point]"}
{"smiles": "CCc1ccc(N/C(N)=N/c2nc(CSc3ncccn3)cc(=O)[nH]2)cc1", "Potency": "inconclusive: 7.08 µM [inhibitor, partial curve, poor fit]"}
